According to patent US20090123943A1:
No constants are given. Whether binding was seen depends on the method and setting. Some results given as binding are weak or reduced against the parent protein; the word gives no strength.

The chains behind the UniProt entries cited, without tags or fusion partners. Where a name states a change or a piece, a line headed by the entry shows the natural chain unless it says otherwise. A line that says so, or that is headed by a name, gives the form on record, which may keep a tag or linker. Residues count along the entry.
UniProt Q15848: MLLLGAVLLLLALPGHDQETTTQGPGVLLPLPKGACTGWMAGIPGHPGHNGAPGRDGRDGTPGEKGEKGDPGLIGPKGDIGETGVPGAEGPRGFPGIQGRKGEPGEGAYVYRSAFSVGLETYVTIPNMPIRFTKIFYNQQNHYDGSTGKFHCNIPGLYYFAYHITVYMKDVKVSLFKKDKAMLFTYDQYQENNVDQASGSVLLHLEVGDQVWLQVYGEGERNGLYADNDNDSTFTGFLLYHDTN
adiponectin (16-247) from Alexis Biochemicals, cat#ALX-522-063, with an N-terminal FLAG tag: residues 16-244 of Q15848
human adiponectin (native, in human plasma): residues 19-244 of Q15848

What was measured:
[1] = target: T1, N-terminal adiponectin peptide … (human); assay: ELISA, peptide coated on 96 well plates
T1 sequence (peptide): ETTQGPGVLLPLPKGAC

[2] = target: human adiponectin (native, in human plasma) (human) (UniProt Q15848); assay: ELISA, western blot, immunofluorescence
[3] = target: human adiponectin (native, in human plasma) (human) (UniProt Q15848); assay: sandwich ELISA on velocity sedimentation fractions of human plasma, mAb as capture
[4] = target: adiponectin (16-247) from Alexis Biochemicals, cat#ALX-522-063, with an N-terminal FLAG tag (UniProt Q15848); assay: sandwich ELISA standard curve, mAb as capture, C-terminal pAb as detection (standard per paragraph 70, FIG. 11b)

binding [1]: binds
binding [2]: binds
binding [3]: binds
binding [4]: binds
B1: mAb adiponectin M24 (N-ADIP-M24, Roche) (antibody, V domains shown)
VH: AGGDHGAELVRPGALVRLSCKASGFNIKDYHMSWLKQRPEQGLEWIGWIDPENGNAIHDPKFQDKANITADTSSNTAYLQLSSLTSEDTAVYFCARSGPAWFAYWGQGTLVTVSA
VL: MTQTPLSLPVSLGDQASISCRSSQTIVYSNGNTYLEWYLQKPGQSPKLLIYKVSNRFSGVPDRFSGSGSGTDFTLKISRVESEDLGIYYCFQGSHVPRTFGGGTKLEIKR
